Laboratory results from the supplement of paper PMC10849652.
Some of the results follow.

Amino acid sequences for entries named in this document (tags omitted). A change or cut given only in a name is not applied to a line headed by its entry.
UniProt Q14203, whole entry, looked up: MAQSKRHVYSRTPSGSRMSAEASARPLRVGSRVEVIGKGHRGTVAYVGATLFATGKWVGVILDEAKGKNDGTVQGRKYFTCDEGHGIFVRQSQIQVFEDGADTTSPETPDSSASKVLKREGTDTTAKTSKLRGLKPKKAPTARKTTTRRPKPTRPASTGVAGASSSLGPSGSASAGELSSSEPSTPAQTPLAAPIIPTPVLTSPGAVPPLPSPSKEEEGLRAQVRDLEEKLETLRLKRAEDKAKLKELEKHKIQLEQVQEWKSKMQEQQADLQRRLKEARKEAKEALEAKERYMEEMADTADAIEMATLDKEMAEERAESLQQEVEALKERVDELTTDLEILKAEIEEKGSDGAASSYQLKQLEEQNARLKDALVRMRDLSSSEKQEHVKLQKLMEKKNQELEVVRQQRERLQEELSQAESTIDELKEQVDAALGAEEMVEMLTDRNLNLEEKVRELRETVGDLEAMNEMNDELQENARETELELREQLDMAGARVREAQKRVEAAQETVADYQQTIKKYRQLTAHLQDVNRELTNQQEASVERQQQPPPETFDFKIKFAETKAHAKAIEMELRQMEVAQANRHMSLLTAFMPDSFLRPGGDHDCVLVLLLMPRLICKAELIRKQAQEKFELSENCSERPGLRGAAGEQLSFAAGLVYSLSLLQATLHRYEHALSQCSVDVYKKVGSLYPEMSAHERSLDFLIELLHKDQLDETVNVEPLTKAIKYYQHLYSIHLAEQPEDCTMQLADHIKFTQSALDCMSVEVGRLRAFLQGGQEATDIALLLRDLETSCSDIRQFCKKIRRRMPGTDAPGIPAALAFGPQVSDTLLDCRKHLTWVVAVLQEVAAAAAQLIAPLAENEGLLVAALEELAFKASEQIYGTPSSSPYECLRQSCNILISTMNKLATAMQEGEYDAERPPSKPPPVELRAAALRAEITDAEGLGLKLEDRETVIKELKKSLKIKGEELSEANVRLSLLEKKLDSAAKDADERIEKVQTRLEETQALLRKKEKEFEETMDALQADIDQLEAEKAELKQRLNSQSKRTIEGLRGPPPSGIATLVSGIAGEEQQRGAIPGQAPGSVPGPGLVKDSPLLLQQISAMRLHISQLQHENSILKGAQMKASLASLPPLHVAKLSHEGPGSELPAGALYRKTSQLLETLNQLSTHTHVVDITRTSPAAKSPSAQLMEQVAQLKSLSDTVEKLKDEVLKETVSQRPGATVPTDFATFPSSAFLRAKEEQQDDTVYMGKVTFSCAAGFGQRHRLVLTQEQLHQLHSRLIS
UniProt P10619: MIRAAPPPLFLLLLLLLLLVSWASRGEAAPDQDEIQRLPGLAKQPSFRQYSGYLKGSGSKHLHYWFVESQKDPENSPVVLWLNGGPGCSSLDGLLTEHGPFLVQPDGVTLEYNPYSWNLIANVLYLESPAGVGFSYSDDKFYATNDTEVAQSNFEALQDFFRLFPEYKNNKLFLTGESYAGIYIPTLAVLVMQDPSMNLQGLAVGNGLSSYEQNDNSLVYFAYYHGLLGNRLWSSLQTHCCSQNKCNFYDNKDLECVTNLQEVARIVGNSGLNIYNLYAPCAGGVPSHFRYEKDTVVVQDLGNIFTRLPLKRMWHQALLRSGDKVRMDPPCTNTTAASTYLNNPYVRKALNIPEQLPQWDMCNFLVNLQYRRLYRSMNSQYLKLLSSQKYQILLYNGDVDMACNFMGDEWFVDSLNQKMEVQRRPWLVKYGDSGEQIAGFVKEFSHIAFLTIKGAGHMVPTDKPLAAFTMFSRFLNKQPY
UniProt Q6ZWL3: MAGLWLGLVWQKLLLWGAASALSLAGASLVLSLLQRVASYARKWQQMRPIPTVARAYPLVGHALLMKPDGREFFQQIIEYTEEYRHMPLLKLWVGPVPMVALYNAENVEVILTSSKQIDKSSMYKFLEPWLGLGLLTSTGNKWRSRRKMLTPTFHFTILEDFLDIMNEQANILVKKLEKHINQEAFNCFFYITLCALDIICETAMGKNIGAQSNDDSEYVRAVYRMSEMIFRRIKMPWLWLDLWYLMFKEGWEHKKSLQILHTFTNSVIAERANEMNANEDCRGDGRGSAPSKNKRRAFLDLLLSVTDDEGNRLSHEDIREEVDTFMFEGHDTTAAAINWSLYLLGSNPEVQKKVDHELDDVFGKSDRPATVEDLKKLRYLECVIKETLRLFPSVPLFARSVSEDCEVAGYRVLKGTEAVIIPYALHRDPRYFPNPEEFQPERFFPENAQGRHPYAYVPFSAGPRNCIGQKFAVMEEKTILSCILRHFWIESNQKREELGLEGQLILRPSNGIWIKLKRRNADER
UniProt P01037: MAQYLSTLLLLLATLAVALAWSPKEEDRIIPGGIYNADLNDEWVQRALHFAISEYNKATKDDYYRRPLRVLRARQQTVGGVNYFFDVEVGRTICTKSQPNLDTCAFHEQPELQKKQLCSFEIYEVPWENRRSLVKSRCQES
UniProt P33240: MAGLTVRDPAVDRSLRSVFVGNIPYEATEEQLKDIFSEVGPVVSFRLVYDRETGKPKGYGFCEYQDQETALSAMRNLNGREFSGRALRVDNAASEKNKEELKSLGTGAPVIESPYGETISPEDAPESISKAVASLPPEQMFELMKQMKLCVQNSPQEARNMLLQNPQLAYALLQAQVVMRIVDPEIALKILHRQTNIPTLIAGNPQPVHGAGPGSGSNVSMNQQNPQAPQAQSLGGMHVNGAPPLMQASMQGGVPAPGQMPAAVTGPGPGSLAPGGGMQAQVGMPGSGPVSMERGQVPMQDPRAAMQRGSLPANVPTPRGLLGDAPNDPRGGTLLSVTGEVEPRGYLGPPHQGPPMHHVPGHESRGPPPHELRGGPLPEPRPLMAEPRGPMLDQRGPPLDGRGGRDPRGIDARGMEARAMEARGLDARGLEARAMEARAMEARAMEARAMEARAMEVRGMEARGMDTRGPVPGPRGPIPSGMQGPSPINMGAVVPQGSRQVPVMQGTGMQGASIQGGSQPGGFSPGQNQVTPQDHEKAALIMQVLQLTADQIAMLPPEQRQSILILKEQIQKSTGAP
UniProt P00167, whole entry, looked up: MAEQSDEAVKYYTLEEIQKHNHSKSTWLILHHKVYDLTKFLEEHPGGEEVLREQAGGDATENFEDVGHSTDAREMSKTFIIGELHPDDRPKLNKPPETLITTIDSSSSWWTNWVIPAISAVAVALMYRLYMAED
UniProt Q9UK59: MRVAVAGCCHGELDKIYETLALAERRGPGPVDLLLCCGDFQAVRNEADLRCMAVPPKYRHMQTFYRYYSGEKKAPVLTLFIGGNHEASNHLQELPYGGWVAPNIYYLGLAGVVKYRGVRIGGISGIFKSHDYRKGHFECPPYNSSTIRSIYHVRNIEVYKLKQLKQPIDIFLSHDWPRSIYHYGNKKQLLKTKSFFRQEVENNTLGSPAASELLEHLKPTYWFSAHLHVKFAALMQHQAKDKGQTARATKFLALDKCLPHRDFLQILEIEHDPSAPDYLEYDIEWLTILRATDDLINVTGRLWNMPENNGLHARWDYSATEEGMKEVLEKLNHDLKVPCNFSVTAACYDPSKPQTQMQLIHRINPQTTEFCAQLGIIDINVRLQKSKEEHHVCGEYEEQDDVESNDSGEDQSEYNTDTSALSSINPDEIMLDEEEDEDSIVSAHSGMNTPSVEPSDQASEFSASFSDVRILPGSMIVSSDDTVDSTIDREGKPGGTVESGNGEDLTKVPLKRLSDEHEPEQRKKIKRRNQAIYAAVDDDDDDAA
UniProt Q58WW2: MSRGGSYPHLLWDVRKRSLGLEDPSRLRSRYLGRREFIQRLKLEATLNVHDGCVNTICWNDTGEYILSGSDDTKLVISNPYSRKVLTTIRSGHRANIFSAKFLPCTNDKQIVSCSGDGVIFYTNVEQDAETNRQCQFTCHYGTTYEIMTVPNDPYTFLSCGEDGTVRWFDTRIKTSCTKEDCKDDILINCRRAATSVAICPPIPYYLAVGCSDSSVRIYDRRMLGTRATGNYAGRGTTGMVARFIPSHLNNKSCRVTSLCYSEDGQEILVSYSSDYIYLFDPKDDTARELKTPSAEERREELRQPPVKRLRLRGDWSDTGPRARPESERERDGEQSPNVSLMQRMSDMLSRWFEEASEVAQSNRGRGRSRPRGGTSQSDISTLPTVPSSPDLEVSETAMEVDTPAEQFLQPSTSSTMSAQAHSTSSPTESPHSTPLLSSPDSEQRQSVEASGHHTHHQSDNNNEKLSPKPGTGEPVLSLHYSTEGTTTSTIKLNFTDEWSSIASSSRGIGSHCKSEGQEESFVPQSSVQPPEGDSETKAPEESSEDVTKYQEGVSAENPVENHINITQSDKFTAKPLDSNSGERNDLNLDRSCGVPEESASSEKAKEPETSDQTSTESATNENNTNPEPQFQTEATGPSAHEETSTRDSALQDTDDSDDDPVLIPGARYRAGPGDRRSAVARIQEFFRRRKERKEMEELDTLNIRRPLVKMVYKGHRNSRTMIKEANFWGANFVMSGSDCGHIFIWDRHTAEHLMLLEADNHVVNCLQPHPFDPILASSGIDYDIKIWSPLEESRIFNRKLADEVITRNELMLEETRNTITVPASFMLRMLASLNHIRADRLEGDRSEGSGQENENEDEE
UniProt Q9NSA3: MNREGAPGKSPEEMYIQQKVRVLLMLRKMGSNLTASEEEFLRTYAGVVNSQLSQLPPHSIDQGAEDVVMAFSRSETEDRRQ
UniProt Q9UBR2: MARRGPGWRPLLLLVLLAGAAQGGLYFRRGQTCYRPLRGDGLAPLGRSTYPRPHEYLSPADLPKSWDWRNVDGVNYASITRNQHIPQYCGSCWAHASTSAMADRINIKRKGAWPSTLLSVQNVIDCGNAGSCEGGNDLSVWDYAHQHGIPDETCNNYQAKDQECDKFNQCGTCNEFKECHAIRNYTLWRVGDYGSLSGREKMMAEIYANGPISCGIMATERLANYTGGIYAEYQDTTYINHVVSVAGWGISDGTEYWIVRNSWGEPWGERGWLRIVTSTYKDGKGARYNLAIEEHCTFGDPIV
UniProt Q8NBI2: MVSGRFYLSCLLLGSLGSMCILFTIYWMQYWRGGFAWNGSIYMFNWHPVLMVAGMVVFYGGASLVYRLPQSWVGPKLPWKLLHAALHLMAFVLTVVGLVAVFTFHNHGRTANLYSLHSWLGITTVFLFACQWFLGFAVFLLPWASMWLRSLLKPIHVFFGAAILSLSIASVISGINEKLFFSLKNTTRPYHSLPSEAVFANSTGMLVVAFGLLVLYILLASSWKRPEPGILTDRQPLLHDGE
UniProt Q14118: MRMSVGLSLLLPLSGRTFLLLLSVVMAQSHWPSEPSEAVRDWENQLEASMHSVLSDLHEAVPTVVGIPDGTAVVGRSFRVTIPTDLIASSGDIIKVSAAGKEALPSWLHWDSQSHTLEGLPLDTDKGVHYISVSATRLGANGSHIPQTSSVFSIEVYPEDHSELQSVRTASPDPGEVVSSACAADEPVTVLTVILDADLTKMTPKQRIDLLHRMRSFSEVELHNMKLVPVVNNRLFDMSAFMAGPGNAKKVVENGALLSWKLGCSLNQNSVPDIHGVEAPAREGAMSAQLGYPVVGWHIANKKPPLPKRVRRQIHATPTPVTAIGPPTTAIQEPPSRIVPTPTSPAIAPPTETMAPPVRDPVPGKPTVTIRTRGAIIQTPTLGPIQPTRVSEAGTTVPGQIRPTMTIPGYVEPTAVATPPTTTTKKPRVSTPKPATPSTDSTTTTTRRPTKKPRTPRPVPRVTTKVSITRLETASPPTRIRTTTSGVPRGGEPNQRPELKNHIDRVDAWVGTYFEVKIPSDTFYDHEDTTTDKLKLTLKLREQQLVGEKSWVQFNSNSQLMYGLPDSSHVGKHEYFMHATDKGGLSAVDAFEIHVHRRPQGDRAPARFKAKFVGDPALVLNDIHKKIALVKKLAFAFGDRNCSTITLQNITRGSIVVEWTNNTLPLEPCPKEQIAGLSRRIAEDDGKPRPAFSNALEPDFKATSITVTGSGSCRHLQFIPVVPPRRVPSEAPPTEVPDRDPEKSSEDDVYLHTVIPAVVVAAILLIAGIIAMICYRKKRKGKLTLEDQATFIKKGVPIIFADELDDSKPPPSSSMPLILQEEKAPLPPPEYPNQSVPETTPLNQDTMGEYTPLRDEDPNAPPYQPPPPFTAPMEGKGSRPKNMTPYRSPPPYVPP
UniProt Q53TN4: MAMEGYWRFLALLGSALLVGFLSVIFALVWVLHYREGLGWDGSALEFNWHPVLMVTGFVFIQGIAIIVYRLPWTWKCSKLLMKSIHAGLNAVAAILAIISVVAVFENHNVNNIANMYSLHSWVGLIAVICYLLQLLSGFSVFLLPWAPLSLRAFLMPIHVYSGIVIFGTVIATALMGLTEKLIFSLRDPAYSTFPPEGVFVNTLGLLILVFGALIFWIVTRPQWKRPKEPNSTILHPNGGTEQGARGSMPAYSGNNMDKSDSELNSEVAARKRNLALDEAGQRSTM
UniProt Q96DE9: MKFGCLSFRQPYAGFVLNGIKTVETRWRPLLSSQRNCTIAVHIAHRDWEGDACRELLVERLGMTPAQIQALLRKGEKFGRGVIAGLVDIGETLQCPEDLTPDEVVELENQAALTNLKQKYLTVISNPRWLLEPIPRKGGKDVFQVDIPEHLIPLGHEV

Key:
Test in all cases: log2 fold change, soluble protein after heating vs DMSO (PISA); higher = thermal stabilisation; K562 cells, 10 uM, 30 min; active = over 0.2 and 3.5 SD of the protein, either way, in both replicates (recomputed)
saracatinib = compound: CN1CCN(CCOc2cc(OC3CCOCC3)c3c(Nc4c(Cl)ccc5c4OCO5)ncnc3c2)CC1 [saracatinib]
How it was run: (§1)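 Soluble protein was defined as the supernatant after 21,000xg for 90 min. It came from K562 cells at 2×10^6 cells/mL given 10 μM compound for 30 min, heated in aliquots for 3 min across 48°C-58°C, pooled, and extracted in PBS with 0.5% NP-40 at 4°C, and was quantified by TMTpro 16plex LC-MS/MS with equalised channel sums. Thermal stability against control samples, from duplicates, is reported as log2 fold change.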

sotrastaurin = compound: CN1CCN(c2nc(C3=C(c4c[nH]c5ccccc45)C(=O)NC3=O)c3ccccc3n2)CC1 [sotrastaurin]
How it was run: as §1

Tubastatin A = compound: CN1CCc2c(c3ccccc3n2Cc2ccc(C(=O)NO)cc2)C1 [Tubastatin A]
How it was run: as §1

[1] = compound: CNC(=O)C1=CC=CC=C1NC2=NC(=NC=C2Cl)NC3=C(C=C(C=C3)N4CCOCC4)OC
How it was run: as §1

defactinib = compound: CNC(=O)c1ccc(Nc2ncc(C(F)(F)F)c(NCc3nccnc3N(C)S(C)(=O)=O)n2)cc1 [defactinib]
How it was run: as §1

rucaparib = compound: CNCc1ccc(-c2[nH]c3cc(F)cc4c3c2CCNC4=O)cc1 [rucaparib]
How it was run: as §1

[2] = compound: CNc1nc(-c2ccc3c(N)n[nH]c3c2)cc(N2C[C@@H](C(=O)NC3CCCCC3)CC[C@H]2C)n1
How it was run: as §1

encorafenib = compound: COC(=O)N[C@@H](C)CNc1nccc(-c2cn(C(C)C)nc2-c2cc(Cl)cc(NS(C)(=O)=O)c2F)n1 [encorafenib]
How it was run: as §1

[3] = compound: COC(=O)[C@H](CCSC)NC(=O)C1=C(C=C(C=C1)NC[C@H](CS)N)C2=CC=CC=C2
How it was run: as §1

[4] = compound: COC1=CC=C(C=C1)CN2C=CC3=C2C=C(C=C3)C(=O)NO
How it was run: as §1

filanesib = compound: CON(C)C(=O)N1N=C(c2cc(F)ccc2F)S[C@@]1(CCCN)c1ccccc1 [filanesib]
How it was run: as §1

zotarolimus = compound: CO[C@H]1C[C@@H]2CC[C@@H](C)[C@@](O)(O2)C(=O)C(=O)N2CCCC[C@H]2C(=O)O[C@H]([C@H](C)C[C@@H]2CC[C@H](n3cnnn3)[C@H](OC)C2)CC(=O)[C@H](C)/C=C(\C)[C@@H](O)[C@@H](OC)C(=O)[C@H](C)C[C@H](C)/C=C/C=C/C=C/1C [zotarolimus]
How it was run: as §1

idasanutlin = compound: COc1cc(C(=O)O)ccc1NC(=O)[C@@H]1N[C@@H](CC(C)(C)C)[C@](C#N)(c2ccc(Cl)cc2F)[C@H]1c1cccc(Cl)c1F [idasanutlin]
How it was run: as §1

alisertib = compound: COc1cc(Nc2ncc3c(n2)-c2ccc(Cl)cc2C(c2c(F)cccc2OC)=NC3)ccc1C(=O)O [alisertib]
How it was run: as §1

[5] = compound: COc1cc2nc(-c3cc(F)ccc3O)nc(N[C@@H]3CNC[C@H]3C(C)(C)O)c2cc1OC
How it was run: as §1

gefitinib = compound: COc1cc2ncnc(Nc3ccc(F)c(Cl)c3)c2cc1OCCCN1CCOCC1 [gefitinib]
How it was run: as §1

[6] = compound: COc1cccc2cc(-c3nc([C@H]4CC[C@H](C(=O)O)CC4)n4ncnc(N)c34)[nH]c12
How it was run: as §1

lapatinib = compound: CS(=O)(=O)CCNCc1ccc(-c2ccc3ncnc(Nc4ccc(OCc5cccc(F)c5)c(Cl)c4)c3c2)o1 [lapatinib]
How it was run: as §1

pictilisib = compound: CS(=O)(=O)N1CCN(Cc2cc3nc(-c4cccc5[nH]ncc45)nc(N4CCOCC4)c3s2)CC1 [pictilisib]
How it was run: as §1

alvocidib = compound: CN1CC[C@H](c2c(O)cc(O)c3c(=O)cc(-c4ccccc4Cl)oc23)[C@H](O)C1 [alvocidib]
How it was run: as §1

Measured: log2 fold change

DBT (UniProt P11182)
inactive: saracatinib -0.012 | sotrastaurin 0.025 | Tubastatin A -0.072 | [1] 0.048 | defactinib 0.071 | rucaparib 0.089 | [2] -0.03 | encorafenib 0.046 | [3] -0.013 | [4] 0.009 | filanesib 0.012 | zotarolimus 0.007 | idasanutlin 0.015 | alisertib 0.003 | [5] -0.006 | gefitinib -0.021 | [6] 0.039 | lapatinib 0.004 | pictilisib 0.052

DAB2 (UniProt P98082)
inactive: saracatinib -0.044 | sotrastaurin 0.009 | Tubastatin A 0.139 | [1] 0.031 | defactinib -0.026 | rucaparib 0.043 | [2] 0.05 | encorafenib 0.077 | [3] -0.13 | [4] -0.009 | filanesib 0.079 | zotarolimus 0 | idasanutlin -0.055 | alisertib -0.081 | [5] 0.155 | gefitinib 0.024 | [6] 0.011 | lapatinib -0.005 | pictilisib 0.071

DCTN1 isoform 4 (UniProt Q14203)
inactive: saracatinib -0.126 | sotrastaurin -0.159 | Tubastatin A 0.079 | [1] -0.056 | defactinib -0.037 | rucaparib 0.227 | [2] 0.074 | encorafenib 0.083 | [3] -0.068 | [4] -0.007 | filanesib 0.047 | zotarolimus 0.095 | idasanutlin 0.012 | alisertib -0.045 | [5] 0.007 | gefitinib 0.042 | [6] -0.083 | lapatinib -0.007 | pictilisib -0.135

CTSA (UniProt P10619)
inactive: saracatinib 0.056 | sotrastaurin 0.089 | Tubastatin A -0.015 | [1] 0.06 | defactinib 0.022 | rucaparib -0.041 | [2] 0.002 | encorafenib 0.057 | [3] 0.065 | [4] 0.01 | filanesib -0.111 | zotarolimus -0.024 | idasanutlin 0.015 | alisertib 0.029 | [5] 0.023 | gefitinib 0.1 | [6] 0.065 | lapatinib 0.045 | pictilisib 0.038

DCBLD1 (UniProt Q8N8Z6)
inactive: saracatinib -0.035 | alvocidib -0.082 | [2] 0.086 | zotarolimus 0.017 | [5] -0.157 | lapatinib -0.126

CYP4V2 (UniProt Q6ZWL3)
inactive: saracatinib 0.056 | alvocidib -0.022 | [1] 0.081 | defactinib -0.045 | rucaparib 0.118 | [2] 0.058 | encorafenib -0.036 | [3] -0.018 | [4] -0.076 | zotarolimus -0.037 | idasanutlin 0.061 | pictilisib -0.034

CST1 (UniProt P01037)
inactive: saracatinib -0.079 | sotrastaurin -0.091 | defactinib -0.027 | [2] 0.19 | [3] -0.091 | filanesib -0.006 | alisertib 0.273 | gefitinib 0.44 | [6] 0.118

CSTF2 (UniProt P33240)
inactive: saracatinib -0.02 | sotrastaurin 0.105 | Tubastatin A -0.064 | [1] -0.023 | defactinib 0.023 | rucaparib 0.034 | [2] -0.092 | encorafenib -0.08 | [3] -0.028 | [4] -0.052 | filanesib 0.005 | zotarolimus -0.009 | idasanutlin 0.013 | alisertib -0.016 | [5] -0.005 | gefitinib -0.07 | [6] 0.023 | lapatinib 0.021 | pictilisib 0.069

CYB5A (UniProt P00167)
inactive: saracatinib -0.011 | sotrastaurin 0.012 | [1] 0.042 | defactinib -0.007 | rucaparib -0.039 | [2] -0.026 | encorafenib -0.053 | [3] 0.027 | filanesib 0.007 | idasanutlin -0.019 | alisertib -0.028 | [5] -0.157 | gefitinib 0.02 | [6] 0.085 | lapatinib -0.149 | pictilisib 0.059

CYBA (UniProt P13498)
inactive: saracatinib 0.067 | sotrastaurin 0.033 | Tubastatin A -0.02 | [1] 0.01 | defactinib 0.014 | rucaparib -0.035 | [2] -0.013 | encorafenib 0.031 | [3] 0.008 | [4] -0.06 | filanesib -0.189 | zotarolimus -0.067 | idasanutlin 0.017 | alisertib -0.044 | [5] -0.171 | gefitinib -0.007 | [6] 0.067 | lapatinib -0.034 | pictilisib -0.047

CWF19L2 (UniProt Q2TBE0)
inactive: saracatinib -0.089 | sotrastaurin -0.15 | Tubastatin A -0.079 | [1] -0.034 | rucaparib 0.102 | [2] -0.014 | encorafenib -0.002 | [4] 0.003 | filanesib 0.225 | zotarolimus -0.025 | idasanutlin 0.124 | [5] 0.062 | lapatinib -0.08 | pictilisib -0.309

DBR1 (UniProt Q9UK59)
inactive: saracatinib 0.048 | sotrastaurin 0.019 | Tubastatin A -0.012 | [1] -0.033 | defactinib -0.012 | rucaparib -0.007 | [2] -0.004 | encorafenib -0.012 | [3] -0.011 | [4] 0.051 | filanesib 0.036 | zotarolimus -0.003 | idasanutlin 0.015 | alisertib -0.018 | [5] 0.017 | gefitinib -0.049 | [6] 0.054 | lapatinib -0.021 | pictilisib -0.064

2 records picked at random from those above:
CYBA (UniProt P13498)
inactive: saracatinib 0.067 | sotrastaurin 0.033 | Tubastatin A -0.02 | [1] 0.01 | defactinib 0.014 | rucaparib -0.035 | [2] -0.013 | encorafenib 0.031 | [3] 0.008 | [4] -0.06 | filanesib -0.189 | zotarolimus -0.067 | idasanutlin 0.017 | alisertib -0.044 | [5] -0.171 | gefitinib -0.007 | [6] 0.067 | lapatinib -0.034 | pictilisib -0.047

CWF19L2 (UniProt Q2TBE0)
inactive: saracatinib -0.089 | sotrastaurin -0.15 | Tubastatin A -0.079 | [1] -0.034 | rucaparib 0.102 | [2] -0.014 | encorafenib -0.002 | [4] 0.003 | filanesib 0.225 | zotarolimus -0.025 | idasanutlin 0.124 | [5] 0.062 | lapatinib -0.08 | pictilisib -0.309

Additional entries

CTSC (UniProt P53634)
inactive: saracatinib 0.03 | sotrastaurin 0.046 | Tubastatin A -0.015 | [1] 0.052 | defactinib 0.035 | rucaparib 0.031 | [2] -0.005 | encorafenib -0.082 | [3] 0.007 | [4] 0.019 | filanesib -0.065 | zotarolimus 0.001 | idasanutlin -0.024 | alisertib 0.021 | [5] -0.04 | gefitinib 0.036 | [6] 0.026 | lapatinib -0.031 | pictilisib 0.083

DCAF6 isoform 3 (UniProt Q58WW2)
inactive: saracatinib 0.093 | sotrastaurin 0.001 | Tubastatin A -0.05 | [1] -0.027 | defactinib -0.012 | rucaparib -0.028 | [2] -0.051 | encorafenib 0 | [3] 0.034 | [4] -0.007 | filanesib -0.017 | zotarolimus -0.045 | idasanutlin -0.026 | alisertib -0.081 | [5] -0.023 | gefitinib -0.01 | [6] 0.059 | lapatinib 0.016 | pictilisib 0.001

CTNNBIP1 (UniProt Q9NSA3)
inactive: saracatinib -0.137 | alvocidib 0.042 | [2] -0.02 | zotarolimus 0.037 | alisertib -0.009 | [6] -0.014 | pictilisib -0.193

CTSZ (UniProt Q9UBR2)
inactive: saracatinib 0.025 | sotrastaurin 0.079 | Tubastatin A -0.056 | [1] 0.005 | defactinib 0 | rucaparib -0.098 | [2] 0.012 | encorafenib -0.012 | [3] 0.027 | [4] 0.073 | filanesib -0.05 | zotarolimus 0.011 | idasanutlin -0.019 | alisertib -0.079 | [5] -0.172 | gefitinib 0.035 | [6] 0.07 | lapatinib 0.015 | pictilisib 0.176

CYB561A3 isoform 2 (UniProt Q8NBI2)
active: rucaparib 0.395
inactive: saracatinib 0.019 | sotrastaurin 0.001 | Tubastatin A 0.047 | [1] 0.025 | [2] -0.068 | encorafenib -0.014 | [4] -0.026 | filanesib -0.073 | zotarolimus 0.011 | idasanutlin -0.066 | alisertib 0.041 | [5] 0.023 | gefitinib -0.06 | [6] 0.088 | lapatinib -0.019 | pictilisib 0.263

DAG1 (UniProt Q14118)
inactive: saracatinib -0.033 | sotrastaurin 0.1 | Tubastatin A -0.021 | [1] -0.093 | defactinib -0.032 | rucaparib -0.014 | [2] 0.052 | encorafenib 0.002 | [3] 0.007 | [4] 0.005 | filanesib 0.054 | zotarolimus -0.045 | idasanutlin -0.047 | alisertib -0.075 | [5] 0.105 | gefitinib 0.032 | [6] 0.082 | lapatinib -0.015 | pictilisib 0.115

CYBRD1 (UniProt Q53TN4)
inactive: saracatinib -0.16 | alvocidib 0.213 | [1] -0.246 | defactinib -0.005 | rucaparib 0.099 | [2] -0.036 | encorafenib 0.206 | [3] 0.007 | [4] 0.088 | zotarolimus -0.034 | idasanutlin 0.106 | alisertib -0.189 | [5] -0.059 | [6] -0.044 | lapatinib -0.067 | pictilisib 0.037

CXorf40B (UniProt Q96DE9)
inactive: saracatinib -0.086 | alvocidib -0.041 | [2] -0.119 | [4] -0.208 | zotarolimus 0.027 | idasanutlin 0.011 | pictilisib -0.003
